Here are results for two sequences from article PMC11868986, “Identification of Schizophrenia‐Risk Regulatory Variant rs1399178 in the Non‐coding Region With Its Impact on NRF1 Binding”.

The exact form of at least one protein or probe is not confirmed. Results from cells or extracts need not show a direct contact. For some assays here: The comparison behind a weaker result is the experiment's own reference, which may not be listed here. Where a protein sequence is shown, tags need not be part of it.

Data set [1] deals with T1, NRF1 (SH-SY5Y nuclear extract) (UniProt Q16656).
T1 sequence (looked up, limits assumed): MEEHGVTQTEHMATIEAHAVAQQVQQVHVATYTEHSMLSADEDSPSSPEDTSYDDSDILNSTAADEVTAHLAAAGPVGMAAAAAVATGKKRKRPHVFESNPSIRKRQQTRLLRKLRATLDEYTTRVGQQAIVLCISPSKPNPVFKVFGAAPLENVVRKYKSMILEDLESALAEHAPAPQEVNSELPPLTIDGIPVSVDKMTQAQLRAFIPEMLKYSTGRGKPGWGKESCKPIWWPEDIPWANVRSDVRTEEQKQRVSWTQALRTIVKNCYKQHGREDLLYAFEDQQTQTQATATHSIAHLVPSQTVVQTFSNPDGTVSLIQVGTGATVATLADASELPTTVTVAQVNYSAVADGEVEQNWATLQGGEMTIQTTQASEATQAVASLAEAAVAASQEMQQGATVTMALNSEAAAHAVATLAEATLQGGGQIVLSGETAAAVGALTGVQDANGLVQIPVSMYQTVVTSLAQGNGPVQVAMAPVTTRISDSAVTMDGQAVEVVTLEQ
The experiment in a line: EMSA. The note with it: band 1 weaker than with G allele, competition also shows G preference, EMSA: Thermo 20148 kit, protein in an extract, label: 3' biotin. For orientation: Mobility shift assays separate free from complexed probe on a gel.

The target in data set [2] is T1, NRF1 (SH-SY5Y nuclear extract). The experiment in a line: EMSA supershift. The note with it: anti-NRF1 antibody, EMSA: Thermo 20148 kit, protein in an extract, label: 3' biotin.

Turning to “CACCCTCCTGGGCGCAGCCACAGCTGCCCAAACTGCA (double strand) [rs1399178-A EMSA probe]”, the binding result in data set [1] is recorded as “binds more weakly”.

“CACCCTCCTGGGCGCAGCCGCAGCTGCCCAAACTGCA (double strand) [rs1399178-G EMSA probe]”: in data set [2], the binding result is on record as “binds”.
